## Primary screen of a compound library

Amino acid sequences for entries named in this document (tags omitted).
UniProt I6X8D2, whole entry: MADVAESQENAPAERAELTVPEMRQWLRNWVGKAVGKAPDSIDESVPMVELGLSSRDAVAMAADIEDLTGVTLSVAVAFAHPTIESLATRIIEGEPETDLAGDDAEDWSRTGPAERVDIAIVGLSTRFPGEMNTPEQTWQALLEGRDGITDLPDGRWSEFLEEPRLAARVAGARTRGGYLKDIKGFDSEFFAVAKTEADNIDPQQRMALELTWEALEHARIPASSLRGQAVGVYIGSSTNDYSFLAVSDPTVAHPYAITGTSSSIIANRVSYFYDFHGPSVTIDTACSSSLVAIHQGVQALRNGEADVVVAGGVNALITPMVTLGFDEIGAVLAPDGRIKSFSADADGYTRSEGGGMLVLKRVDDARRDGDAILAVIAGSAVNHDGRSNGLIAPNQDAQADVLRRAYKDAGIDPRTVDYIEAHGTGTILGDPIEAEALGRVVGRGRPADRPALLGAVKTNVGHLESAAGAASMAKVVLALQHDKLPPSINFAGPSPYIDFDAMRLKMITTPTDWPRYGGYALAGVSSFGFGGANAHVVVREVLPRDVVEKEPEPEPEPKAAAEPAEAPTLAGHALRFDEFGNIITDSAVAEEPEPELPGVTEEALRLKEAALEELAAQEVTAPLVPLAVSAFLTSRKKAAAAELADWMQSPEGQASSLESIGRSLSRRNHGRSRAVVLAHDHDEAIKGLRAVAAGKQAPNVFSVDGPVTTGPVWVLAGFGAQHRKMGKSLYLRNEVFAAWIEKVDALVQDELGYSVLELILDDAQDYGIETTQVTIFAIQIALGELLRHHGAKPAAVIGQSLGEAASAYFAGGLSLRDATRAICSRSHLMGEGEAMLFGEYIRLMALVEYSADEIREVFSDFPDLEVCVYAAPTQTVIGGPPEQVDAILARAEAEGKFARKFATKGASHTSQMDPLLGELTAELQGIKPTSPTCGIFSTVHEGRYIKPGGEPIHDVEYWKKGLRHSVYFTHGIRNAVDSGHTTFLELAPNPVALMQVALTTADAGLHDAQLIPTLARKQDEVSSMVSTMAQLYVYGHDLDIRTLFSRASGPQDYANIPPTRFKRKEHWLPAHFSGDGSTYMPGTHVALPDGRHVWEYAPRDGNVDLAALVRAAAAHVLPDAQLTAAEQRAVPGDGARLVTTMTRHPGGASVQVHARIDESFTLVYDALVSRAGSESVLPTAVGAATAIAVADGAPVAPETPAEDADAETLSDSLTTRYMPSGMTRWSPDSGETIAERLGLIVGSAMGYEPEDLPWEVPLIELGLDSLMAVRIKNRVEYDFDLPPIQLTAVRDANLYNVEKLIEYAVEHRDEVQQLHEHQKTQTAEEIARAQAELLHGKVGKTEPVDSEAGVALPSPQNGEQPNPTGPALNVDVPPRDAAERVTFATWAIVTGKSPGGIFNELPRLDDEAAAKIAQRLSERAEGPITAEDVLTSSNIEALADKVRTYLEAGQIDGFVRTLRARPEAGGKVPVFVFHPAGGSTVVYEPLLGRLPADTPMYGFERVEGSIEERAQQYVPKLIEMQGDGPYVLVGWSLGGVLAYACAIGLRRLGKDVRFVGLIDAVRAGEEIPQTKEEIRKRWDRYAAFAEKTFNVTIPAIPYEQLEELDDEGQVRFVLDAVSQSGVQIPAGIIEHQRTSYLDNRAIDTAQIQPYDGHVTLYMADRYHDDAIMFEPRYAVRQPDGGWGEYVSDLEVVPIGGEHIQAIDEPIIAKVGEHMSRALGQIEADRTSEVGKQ

From ChEMBL document CHEMBL3988442, “University of Dundee, Small-Polar-MMV Screening Library” (2021).

Toxoplasma: 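Assay of Toxoplasma gondii numbers, read through their beta-galactosidase reporter with a colour substrate. Tested at 10 µM. The record gives no direction; the compounds picked for IC50 retests had high values, so higher reads as fewer parasites. About 67,000 compounds were tested under these conditions; 0.38% (about 260) showed 50% or more at least once.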
Pks13 thioesterase: 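Polyketide synthase Pks13, Mycobacterium tuberculosis (UniProt I6X8D2). Enzyme assay of the thioesterase domain of polyketide synthase 13; the read-out is not stated. Concentration: 30 µM. Higher reads as stronger inhibition (inferred from which compounds were picked for retests). Size under these conditions: about 67,000 compounds, about 300 of them at 50% or above in at least one test.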

The filed quantity is “Percent Effect” (%).
How 0% and 100% were set is not recorded. Most values in the screen are low, and negative values occur.
Compounds were drawn at random from those tested, without regard to their results.
A dash means the value is not listed here; it may have been measured.

SMILES | Toxoplasma | Pks13 thioesterase
O=C(c1ccc[nH]1)N1CCCC2(CCCN2Cc2cccnc2)C1 (stereo not shown) | 1.708% | -20.44%
CC1CCCN(Cc2c(C3CC3)n(CC(=O)N(C)C)c3ncccc23)C1.Cl (stereo not shown) | -2.394% | -
O=C(O)C(F)(F)F.[H][C@@]12CCN(Cc3ccc4c(c3)OCO4)C[C@]1([H])[C@H](C(=O)N(C)C)CCO2 | 5.156% | -
Cn1cc(C2CCCN2C(=O)c2cn(-c3ccccc3)nn2)cn1 (stereo not shown) | -27.45% | -11.43%
CN(C(=O)C1CCC1)C1CCN(c2ccccc2Cl)C1=O (stereo not shown) | -4.508% | 6.527%
COCC(O)CN(C)C(=O)c1cccc(-c2csc(C)n2)c1 (stereo not shown) | 10.38% | -13.32%
Cc1cc(CN2CCN(C(=O)NC(C)c3cccnc3)CC2)no1 (stereo not shown) | -1.928% | -8.056%
CN1C(=O)C2(CCN(c3ncccc3C(=O)O)CC2)c2ccccc21 | -5.76% | -16.59%
CN(C)C(=O)N1CCO[C@@H]2CC(COCc3cccnc3)C[C@H]21 (stereo partly shown) | - | -4.492%
CC(=O)N1CCO[C@H]2[C@H](OCCCn3cccn3)CC[C@@H]21 | - | -11.74%
COCCN1CCN(C(=O)c2ccccc2C(C)=O)[C@H]2CS(=O)(=O)C[C@H]21 | - | -5.127%
COCCc1noc(CN2CCc3nn(C(C)C)c(=O)cc3C2)n1 | -6.591% | 1.864%
O=C(O)C(F)(F)F.[H][C@]12CN(CCc3ccccc3)C[C@@]1([H])S(=O)(=O)CC[C@@H]2C(=O)NC1CCC1 | 2.715% | -
CN1CCN(Cc2ccco2)Cc2cccnc21 | 5.732% | -14.67%
O=C(NCCN1CCCCCC1=O)Nc1cccnc1-n1cccn1 | -0.6073% | -14.17%
COc1cccc(CC2CN(C3CCC3)CCO2)c1 (stereo not shown) | -9.074% | -0.6002%
Cc1cc(CNc2cc(Cl)ccc2Cl)no1 | -12.41% | 26.28%
Cc1cccc2c1nc(COCC(=O)O)n2-c1ccsc1 | -10.78% | 7.183%
CCc1cc(CNC(=O)C2CCCN(C(=O)NCC(C)C)C2)[nH]n1 (stereo not shown) | 13.79% | -5.314%
O=c1c(-c2ccnc(N3CCCC[C@@H]3CO)n2)cnc2sccn12 | 5.443% | 41.41%
[H][C@@]12COC[C@]1(c1nc(C)no1)CN(C(=O)COC1CCCC1)C2 | 1.667% | -
Cc1cc(C2CCCN2S(=O)(=O)c2cnn(C)c2)on1 (stereo not shown) | 17.16% | -18.14%
Cc1ccccc1S(=O)(=O)Cc1nsc(N(C)C)n1 | 5.509% | -6.944%
O=C(O)CCc1cn(C2CCN(c3ncccc3Cl)CC2)nn1 | 0.534% | 3.002%
Cc1nc(C)n(CC2CN(CC(=O)Nc3ccncc3)CCO2)n1 (stereo not shown) | -5.4% | -17.79%
OCCNc1nccc(-c2cn3nccc3nc2C2CCCCC2)n1 | 20.44% | 12.91%
Nc1nc2c(c(=O)[nH]1)CCN(C(=O)c1cccc3nccnc13)C2 | 4.569% | 2.766%
CC(C)C(CNCc1cccc2c1OCO2)N1CCOCC1 (stereo not shown) | -12.83% | -15.49%
NCc1cn(CC2CCCN(C(=O)NCCc3ccc(F)cc3)C2)nn1 (stereo not shown) | -16.12% | -2.721%
O=C(c1c[nH]c(=O)[nH]c1=O)N1CCCC(c2cnccn2)C1 (stereo not shown) | -18.24% | 15.6%
O=C(O)CN1CCC(c2ccccc2)CC1 | -18.09% | -1.649%
CN(CCS(C)(=O)=O)C1CCCN(Cc2noc(C3CC3)n2)C1 (stereo not shown) | 4.79% | -1.278%
Cc1ccc(Br)c(S(=O)(=O)NCc2ccnn2C)c1 | 3.488% | -34.6%
CC(=O)N(Cc1ncc(C)o1)C1CCN(Cc2ccccc2C#N)C1 (stereo not shown) | -7.446% | -12.63%
CCc1cc(N2CCCNCC2)n2nc(C)c(C)c2n1 | -38.66% | -2.177%
O=C(O)C(F)(F)F.O=C(O)C(F)(F)F.[H][C@@]12CCN(Cc3cc(C)on3)C[C@@]1([H])O[C@@H](C(=O)Nc1cccnc1C)C2 | 21.29% | -
Cc1nc(C(C)(C)C)sc1C(=O)NCCNc1ncccn1 | -10.73% | 1.19%
CN(C)C(=O)c1ccc(-c2cccc3c2CCNC3)cc1 | - | -7.544%
O=C(CN1CCN(c2ncnc3c2CCNCC3)CC1)N1CCCCC1 | 9.018% | -35.26%
Cc1sc2c(C3CCCN(C(C)C)C3)nc(C)n2c1C (stereo not shown) | -2.274% | 6.032%
O=C(O)C(F)(F)F.[H][C@@]12C[C@H](C(=O)N3CCN(C)CC3)[C@@]([H])(CN(S(=O)(=O)CCC)C1)O2 | -5.362% | -
Cc1cc(C(C)(O)CNC(=O)CCOCC(C)C)c(C)o1 (stereo not shown) | 0.3846% | -41.66%
OCCOCCN1CCCC1c1nc2cc(F)ccc2[nH]1 (stereo not shown) | -4.094% | -14.27%
N#Cc1cccc(N2CCCC3(CN(C(=O)[C@H]4CCCO4)CCO3)C2)c1 (stereo partly shown) | -6.229% | -3.132%
CN(C)c1nccnc1C1CCCN(c2cnccn2)C1 (stereo not shown) | -6.336% | 11.28%
CCc1nc2n(n1)CC(NCc1nc(-c3ccccn3)no1)CC2 (stereo not shown) | 24.24% | -8.894%
CC(C1CCN(Cc2c(Cl)ccc(O)c2Cl)CC1)N1CCN(C)CC1 (stereo not shown) | -2.572% | -38.93%
CC1=Nc2c(c(=O)[nH]n2C2CCCCC2)C(c2cccnc2)S1 (stereo not shown) | 16.71% | -21.82%

For reference, 5 entries once more:

SMILES	Toxoplasma	Pks13 thioesterase
OCCOCCN1CCCC1c1nc2cc(F)ccc2[nH]1 (stereo not shown)	-4.094%	-14.27%
CC(=O)N1CCO[C@H]2[C@H](OCCCn3cccn3)CC[C@@H]21	-	-11.74%
N#Cc1cccc(N2CCCC3(CN(C(=O)[C@H]4CCCO4)CCO3)C2)c1 (stereo partly shown)	-6.229%	-3.132%
Cc1cc(CNc2cc(Cl)ccc2Cl)no1	-12.41%	26.28%
Cn1cc(C2CCCN2C(=O)c2cn(-c3ccccc3)nn2)cn1 (stereo not shown)	-27.45%	-11.43%